Some of these results come from one statement about several compounds together. At least one compound was matched to its structure with a doubt left.
Assays:
Fusarium culmorum = assay: Activity against Fusarium culmorum in the microtiterplate test; type: cell-based; settings: 31 ppm active substance; relative growth vs compound-free control (100%)
Botrytis cinerea [1] = assay: Activity against the grey mold Botrytis cinerea in the microtiterplate test; type: cell-based; settings: 31 ppm active substance; relative growth vs compound-free control (100%)
[2] = tested on: Colletotrichum orbiculare; assay: Activity against Colletotrichum orbiculare in the microtiterplate test; type: cell-based; settings: 31 ppm active substance; DOB media pH 7; relative growth vs compound-free control (100%)
Fusarium gramminearis = assay: Activity against Fusarium gramminearis in the microtiterplate test; type: cell-based; settings: 31 ppm active substance; DOB media pH 7; relative growth vs compound-free control (100%)
Monilinia laxa = assay: Activity against Monilinia laxa in the microtiterplate test; type: cell-based; settings: 31 ppm active substance; DOB media pH 7; relative growth vs compound-free control (100%)
[3] = tested on: Pyrenophora teres Qoi (FL129) resistant isolate; assay: Activity against Pyrenophora teres Qoi (FL129) resistant isolate in the microtiterplate test; type: cell-based; settings: 31 ppm active substance; DOB media pH 7; relative growth vs compound-free control (100%)
Leptosphaeria maculans = assay: Activity against Leptosphaeria maculans in the microtiterplate test; type: cell-based; settings: 31 ppm active substance; DOB media pH 7; relative growth vs compound-free control (100%)
Corynespora cassiicola = assay: Activity against Corynespora cassiicola in the microtiterplate test; type: cell-based; settings: 31 ppm active substance; DOB media pH 7; relative growth vs compound-free control (100%)
[4] = tested on: Corynespora cassiicola (CORYCA-G) G413A mutant; assay: Activity against Corynespora cassiicola (CORYCA-G) G413A mutant in the microtiterplate test; type: cell-based; settings: 31 ppm active substance; DOB media pH 7; relative growth vs compound-free control (100%)
Sclerotinia sclerotiorum = assay: Preventative fungicidal control of white mold on oilseed rape caused by Sclerotinia sclerotiorum; type: in vivo; settings: 100 g/ha, inoculated next day, assessed after 14 days, untreated plants 100% infected
Microdochium nivale = assay: Activity against Microdochium nivale in the microtiterplate test; type: cell-based; settings: 31 ppm active substance; DOB media pH 7; relative growth vs compound-free control (100%)
Leptosphaeria nodorum = assay: Activity against Leptosphaeria nodorum in the microtiterplate test; type: cell-based; settings: 31 ppm active substance; DOB media pH 7; relative growth vs compound-free control (100%)
Botrytis cinerea [5] = assay: Preventative fungicidal control of Botrytis cinerea on leaves of green pepper (100 g/ha); type: in vivo; settings: inoculated next day, assessed after 5 days, untreated plants 100% infected
Botrytis cinerea [6] = assay: Long lasting control of Botrytis cinerea on leaves of green pepper (100 g/ha); type: in vivo; settings: inoculated 7 days after treatment, assessed after 5 days, untreated plants 90% infected
Septoria tritici = assay: Activity against the leaf blotch on wheat caused by Septoria tritici in the microtiterplate test; type: cell-based; settings: 31 ppm active substance; relative growth vs compound-free control (100%)

Fc1cccc2cc(C3=NC4(CCC4)Oc4ccccc43)cnc12 [Ex-1, 4-(8-fluoro-3-quinolyl)spiro[1,3-benzoxazine-2,1′-cyclobutane]]
growth of the pathogen (Fusarium culmorum): ≤ 16%

Fc1cccc2cc(C3=NC4(CCCC4)Oc4ccccc43)cnc12 [Ex-2]
growth of the pathogen (Fusarium culmorum): ≤ 16%

CC(C)CC1(C)N=C(c2cnc3c(F)cccc3c2)c2ccccc2O1 (stereo not drawn) [Ex-7]
growth of the pathogen (Fusarium culmorum): ≤ 16%

CC(C)(C)CC1(C)N=C(c2cnc3c(F)cccc3c2)c2ccccc2O1 (stereo not drawn) [Ex-8]
growth of the pathogen (Fusarium culmorum): ≤ 16%

CC(C)(C)C1N=C(c2cnc3c(F)cccc3c2)c2ccccc2O1 (stereo not drawn) [Ex-10]
growth of the pathogen (Fusarium culmorum): ≤ 16%

CC1CCCC(C)C12N=C(c1cnc3c(F)cccc3c1)c1ccccc1O2 (stereo not drawn) [Ex-12]
growth of the pathogen (Botrytis cinerea [1]): ≤ 17%

Fc1cccc2cc(C3=NC4(COC4)Oc4ccccc43)cnc12 [Ex-14]
growth of the pathogen (Fusarium culmorum): ≤ 16%

Fc1cccc2cc(C3=NC4(CCOC4)Oc4ccccc43)cnc12 (stereo not drawn) [Ex-15]
growth of the pathogen (Fusarium culmorum): ≤ 16%

CC1(C)CCCC12N=C(c1cnc3c(F)cccc3c1)c1ccccc1O2 (stereo not drawn) [Ex-18]
growth of the pathogen (Botrytis cinerea [1]): ≤ 17%
growth of the pathogen [2]: ≤ 13%
growth of the pathogen (Fusarium gramminearis): ≤ 20%
growth of the pathogen (Monilinia laxa): ≤ 19%
growth of the pathogen [3]: ≤ 20%
growth of the pathogen (Leptosphaeria maculans): ≤ 16%
growth of the pathogen (Corynespora cassiicola): ≤ 17%
growth of the pathogen [4]: ≤ 8%
growth of the pathogen (% diseased leaf area) (Sclerotinia sclerotiorum): at most 13%

Fc1cccc2cc(C3=NC4(CCC4)Oc4c(Cl)cccc43)cnc12 [Ex-19]
growth of the pathogen (Botrytis cinerea [1]): ≤ 17%
growth of the pathogen (Microdochium nivale): ≤ 19%
growth of the pathogen [2]: ≤ 13%
growth of the pathogen (Leptosphaeria nodorum): ≤ 4%
growth of the pathogen (Monilinia laxa): ≤ 19%
growth of the pathogen (Corynespora cassiicola): ≤ 17%
growth of the pathogen (% diseased leaf area) (Sclerotinia sclerotiorum): at most 13%
growth of the pathogen (% diseased leaf area) (Botrytis cinerea [5]): at most 15%
growth of the pathogen (% diseased leaf area) (Botrytis cinerea [6]): at most 13%

Fc1cccc2c1OC1(CCC1)N=C2c1cnc2c(F)cccc2c1 [Ex-21]
growth of the pathogen (Botrytis cinerea [1]): ≤ 17%
growth of the pathogen (Septoria tritici): ≤ 18%
growth of the pathogen (Microdochium nivale): ≤ 19%
growth of the pathogen [2]: ≤ 13%
growth of the pathogen (Leptosphaeria nodorum): ≤ 4%
growth of the pathogen (Monilinia laxa): ≤ 19%
growth of the pathogen (% diseased leaf area) (Sclerotinia sclerotiorum): at most 13%
growth of the pathogen (% diseased leaf area) (Botrytis cinerea [5]): at most 15%

CC(C)(C)C1(C)N=C(c2cnc3c(F)cccc3c2)c2cccc(F)c2O1 (stereo not drawn) [Ex-22]
growth of the pathogen (Microdochium nivale): ≤ 19%
growth of the pathogen [2]: ≤ 13%
growth of the pathogen (Leptosphaeria nodorum): ≤ 4%
growth of the pathogen (Monilinia laxa): ≤ 19%
growth of the pathogen [3]: ≤ 20%
growth of the pathogen (Leptosphaeria maculans): ≤ 16%
growth of the pathogen (% diseased leaf area) (Botrytis cinerea [6]): at most 13%

Fc1cccc2cc(C3=NC4(CC5CCC4C5)Oc4ccccc43)cnc12 (stereo not drawn) [Ex-23]
growth of the pathogen (Botrytis cinerea [1]): ≤ 17%
growth of the pathogen (Microdochium nivale): ≤ 19%
growth of the pathogen [2]: ≤ 13%
growth of the pathogen (Leptosphaeria nodorum): ≤ 4%
growth of the pathogen (Monilinia laxa): ≤ 19%
growth of the pathogen [3]: ≤ 20%
growth of the pathogen (Leptosphaeria maculans): ≤ 16%
growth of the pathogen (Corynespora cassiicola): ≤ 17%
growth of the pathogen [4]: ≤ 8%

COc1ccc2c(c1)OC1(CCC1)N=C2c1cnc2c(F)cccc2c1 [Ex-24]
growth of the pathogen (Botrytis cinerea [1]): ≤ 17%
growth of the pathogen (Septoria tritici): ≤ 18%
growth of the pathogen (Microdochium nivale): ≤ 19%
growth of the pathogen (Leptosphaeria nodorum): ≤ 4%
growth of the pathogen (Monilinia laxa): ≤ 19%
growth of the pathogen (Corynespora cassiicola): ≤ 17%
growth of the pathogen (% diseased leaf area) (Sclerotinia sclerotiorum): at most 13%
growth of the pathogen (% diseased leaf area) (Botrytis cinerea [5]): at most 15%
growth of the pathogen (% diseased leaf area) (Botrytis cinerea [6]): at most 13%

CC(C)CC1(C)N=C(c2cnc3c(F)cccc3c2)c2ccccc2O1 (stereo not drawn) [Ex-28]
growth of the pathogen (Microdochium nivale): ≤ 19%
growth of the pathogen [2]: ≤ 13%
growth of the pathogen (Leptosphaeria nodorum): ≤ 4%
growth of the pathogen (Fusarium gramminearis): ≤ 20%
growth of the pathogen (Leptosphaeria maculans): ≤ 16%
growth of the pathogen (Corynespora cassiicola): ≤ 17%
growth of the pathogen [4]: ≤ 8%
